Assay results as given in article PMC10033409, “Autoregulation of GPCR signalling through the third intracellular loop” (Nature, 2023).
Several values for one entry are separate records, joined by “and”; a condition that tells them apart may be missing. Equal values may be shown once.

Test system: β2AR L258Azi (Δ350-413)
Test: Time-correlated single photon counting, other sensor designs and dye-only controls (mNeonGreen/Cy3, TagRFP/AZDye488, free dyes)
Format: biochemical, human
Conditions: Extended Data Figure 4L

With Oregon Green as the substance, how does the “Fluorescence lifetime, Free Dye, individual replicates 1-3” value read?
The value was 2.81 and 2.69 and 2.84.

And the “Fluorescence lifetime, Free Dye, Average” value (average of 3)?
The value was 2.78.
